# Source: PubChem BioAssay AID602196 (INSERM, 2012)
# Test: 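Genes whose knock-down alters cisplatin killing of lung cancer cells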
# Cells: human A549 lung cancer cells
# Reagents: siRNA pair against human genes
# Duration: 48 h transfection before cisplatin; time from cisplatin to read-out not stated
# Conditions: cisplatin at a dose killing half of control-siRNA cells; exact dose and duration not given
# Measured: 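Cisplatin cell death as a shift from the 50% death seen with control siRNA; siRNAs toxic or growth-blocking alone scored 0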
# Direction: two-siRNA summed score (-2 to +2): higher = both siRNAs protect from cisplatin killing; -2 means both sensitise; mean protection from cisplatin (shift in death) and protection from cisplatin (shift in death), siRNA C and protection from cisplatin (shift in death), siRNA D: higher = protection from cisplatin killing
# Call rule: 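siRNAs harmful alone (LDH or WST-1) get 0; others get +1 for less and -1 for more cisplatin killing; genes are active when the two siRNAs give the same sign, summing to ±2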
# Calls: active = both siRNAs shift cisplatin killing the same way; inactive = no consistent shift, or siRNA harmful alone
# In all, the deposit lists about 23,000 reagents; shown is an unselected part. 455 of them (2%) were called active. 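Active includes both protection and sensitisation; some change values fall well beyond the stated -50 to +50 range.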 A number with no mark means an inactive call. Not given: the amount of reagent.
Gene,PubChem SID,two-siRNA summed score (-2 to +2),mean protection from cisplatin (shift in death) (%),"protection from cisplatin (shift in death), siRNA C (%)","protection from cisplatin (shift in death), siRNA D (%)"
LANCL3,SID131519345,1,4.9,-2.7,12.5
EDC3,SID131506087,0,-2,-7.6,3.5
MAPK1IP1L,SID131519455,1,5.7,15.9,-4.5
EVI5L,SID131508585,0,1.2,9.7,-7.3
LOC440829,SID131521503,1,13.8,8.2,19.3
CHST5,SID131508603,0,1.3,-3.6,6.1
ZC3HAV1L,SID131507972,0,0.5,-2,2.9
ADH6,SID131503540,0,-9.3,-5,-13.6
LOC440523,SID131522360,1,17.9,12,23.8
C2orf66,SID131520530,1,10.2,8.4,12
PHF23,SID131516007,0,10.1,15.3,4.9
VSTM1,SID131505878,0,-2.4,2.9,-7.8
LOC442124,SID131522879,1,29,27.5,30.5
LOC392559,SID131509261,0,2,-7.9,11.9
RNF121,SID131519121,1,2.7,-9.6,14.9
PLIN3,SID131509889,0,2.6,4.9,0.3
MMP23A,SID131503232,0,-11.8,-21.4,-2.3
OCLM (retired record),SID131523036,2 (active),17.5,13.2,21.8
IFNL3,SID131503051,0,-14.7,3.5,-32.9
MCTS1,SID131504814,0,-4.4,-18.5,9.6
TPD52L1,SID131512041,0,5.1,0.4,9.7
ATG13,SID131518237,0,17.5,22.7,12.2
LOC341412,SID131518512,0,20.8,18.9,22.6
TEKT5,SID131509634,0,2.3,1.1,3.6
ARSL,SID131509110,0,1.8,5.4,-1.7
GRWD1,SID131503957,0,-7,-1.2,-12.9
GMEB1,SID131501459,-1,-9.6,-5,-14.3
LOC347376,SID131505696,0,-2.7,5.1,-10.5
BCL2L13,SID131517428,0,13.4,26.6,0.2
LOC400809,SID131509199,0,1.9,-2.6,6.5
SLC43A1,SID131516537,0,11.1,11.1,11
SLC11A2,SID131523236,2 (active),34.2,31.4,36.9
DDR2,SID131521783,1,14.9,22.8,6.9
SDF2L1,SID131513496,0,6.6,4.7,8.6

Entries listed so far called active:
Gene,PubChem SID,two-siRNA summed score (-2 to +2),mean protection from cisplatin (shift in death) (%),"protection from cisplatin (shift in death), siRNA C (%)","protection from cisplatin (shift in death), siRNA D (%)"
OCLM (retired record),SID131523036,2 (active),17.5,13.2,21.8
SLC11A2,SID131523236,2 (active),34.2,31.4,36.9

Continued:
Gene,PubChem SID,two-siRNA summed score (-2 to +2),mean protection from cisplatin (shift in death) (%),"protection from cisplatin (shift in death), siRNA C (%)","protection from cisplatin (shift in death), siRNA D (%)"
ACOX3,SID131500806,-1,-15.8,-30,-1.5
FYCO1,SID131511145,0,4,-14.4,22.4
PRICKLE2,SID131517087,0,12.4,26.2,-1.5
RAD51,SID131505068,0,-3.9,0.7,-8.4
LOC442001,SID131523010,2 (active),16.7,16.8,16.6
SLC26A11,SID131514207,0,7.5,7.8,7.3
HUNK,SID131519493,1,5.9,21.6,-9.8
NKX3-2,SID131522279,1,17.4,8,26.7
TMTC4,SID131512628,0,5.7,5.9,5.5
UQCR10,SID131514766,0,8.2,12.2,4.2
NDUFAF1,SID131515553,0,9.3,11.6,7
FLJ13373,SID131520567,1,10.3,-1.4,22.1
LOC441843,SID131508216,0,0.8,4.2,-2.6
LOC442498,SID131521759,1,14.8,10.3,19.2
PDE7A,SID131502003,-1,-6,-30.8,18.9
CD22,SID131504495,0,-5.2,-17.3,6.9
EVPL,SID131504765,0,-4.5,-2.5,-6.6
IFT88,SID131507796,0,0.3,2,-1.5
SDR39U1,SID131509865,0,2.6,2.9,2.3
TAS1R1,SID131501501,-1,-9.4,-3.9,-14.8
RBM12,SID131508140,0,0.7,4.4,-3.1
EIF3FP2,SID131508968,0,1.7,0.9,2.4
SIL1,SID131505699,0,-2.7,2,-7.4
